Experimental findings from article PMC8406326 are described below.

The chains behind the UniProt entries cited, without tags or fusion partners.
UniProt O08573: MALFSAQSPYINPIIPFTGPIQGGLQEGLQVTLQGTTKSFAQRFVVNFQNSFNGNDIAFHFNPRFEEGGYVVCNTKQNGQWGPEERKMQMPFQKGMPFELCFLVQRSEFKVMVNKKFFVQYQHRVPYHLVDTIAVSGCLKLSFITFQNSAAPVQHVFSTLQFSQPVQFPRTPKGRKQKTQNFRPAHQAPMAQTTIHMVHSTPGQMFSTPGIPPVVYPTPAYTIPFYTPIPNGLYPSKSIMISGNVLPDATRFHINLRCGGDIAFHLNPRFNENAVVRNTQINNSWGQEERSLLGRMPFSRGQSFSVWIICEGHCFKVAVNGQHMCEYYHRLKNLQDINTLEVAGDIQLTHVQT
UniProt P16110: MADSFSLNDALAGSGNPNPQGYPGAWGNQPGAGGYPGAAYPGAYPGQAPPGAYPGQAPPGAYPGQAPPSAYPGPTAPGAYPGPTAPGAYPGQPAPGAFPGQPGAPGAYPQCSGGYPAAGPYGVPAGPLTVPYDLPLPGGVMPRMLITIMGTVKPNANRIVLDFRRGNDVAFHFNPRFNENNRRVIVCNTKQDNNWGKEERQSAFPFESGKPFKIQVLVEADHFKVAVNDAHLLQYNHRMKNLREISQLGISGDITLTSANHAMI
UniProt Q8K3K8: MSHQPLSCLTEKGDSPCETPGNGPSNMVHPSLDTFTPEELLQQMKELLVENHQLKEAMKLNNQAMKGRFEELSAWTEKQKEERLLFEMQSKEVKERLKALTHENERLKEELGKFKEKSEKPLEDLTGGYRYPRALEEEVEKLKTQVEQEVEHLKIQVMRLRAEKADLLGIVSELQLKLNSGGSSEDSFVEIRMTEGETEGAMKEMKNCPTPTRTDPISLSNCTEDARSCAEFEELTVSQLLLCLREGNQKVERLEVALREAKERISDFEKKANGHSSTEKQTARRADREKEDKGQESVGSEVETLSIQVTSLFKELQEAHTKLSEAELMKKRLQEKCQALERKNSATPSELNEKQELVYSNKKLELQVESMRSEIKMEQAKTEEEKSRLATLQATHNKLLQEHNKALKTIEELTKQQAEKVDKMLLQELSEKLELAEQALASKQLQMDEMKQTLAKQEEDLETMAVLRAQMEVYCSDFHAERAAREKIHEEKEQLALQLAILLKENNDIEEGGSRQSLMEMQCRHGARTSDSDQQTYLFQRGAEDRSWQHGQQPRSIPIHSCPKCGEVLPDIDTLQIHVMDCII
UniProt O00560: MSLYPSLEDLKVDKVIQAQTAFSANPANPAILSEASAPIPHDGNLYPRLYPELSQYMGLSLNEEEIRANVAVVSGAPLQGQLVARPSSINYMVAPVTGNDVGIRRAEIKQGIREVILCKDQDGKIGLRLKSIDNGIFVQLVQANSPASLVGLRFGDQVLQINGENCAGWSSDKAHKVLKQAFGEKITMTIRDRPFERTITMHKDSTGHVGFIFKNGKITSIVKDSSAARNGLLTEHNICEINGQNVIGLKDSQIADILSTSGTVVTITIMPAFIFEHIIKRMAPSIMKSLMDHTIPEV

Results are given in words; binding and its absence hold for the method and conditions named. Binding seen in cells or lysates may run through a third protein. Some entries that bind do so weakly or less than the wild type. For part of these data: Sequences can lack the tags named with a protein.

In test [1] the target is 3×FLAG-galectin-9 (not stated (human or mouse cDNA cloned)) (UniProt O08573). Put plainly: co-IP; directed co-IP: 3×FLAG-galectin and HA-tagged adapter (or TAX1BP1 truncation) coexpressed in HEK293T cells; IP of FL-galectin-8 and blot for HA in Fig. 5B, C, F (direction not told for Fig. 4E); lysis buffer 150 mM Tris pH 7.5, 50 mM NaCl, 1 mM EDTA, 0.075% NP-40; 4°C.
In test [2] the target is 3×FLAG-galectin-3 (not stated (human or mouse cDNA cloned)) (UniProt P16110). As to the kind of experiment: co-IP; 3×FLAG-galectins ectopically expressed in HEK293T cells, immunoprecipitated; co-IPs probed for endogenous syntenin-1 and TAX1BP1; lysis buffer 150 mM Tris pH 7.5, 50 mM NaCl, 1 mM EDTA, 0.075% NP-40; 4°C.
The target of test [3] is T1, mouse 3×FLAG–galectin-8 (ectopically expressed in HEK293T cells) (mouse) (UniProt Q9JL15).
T1 sequence: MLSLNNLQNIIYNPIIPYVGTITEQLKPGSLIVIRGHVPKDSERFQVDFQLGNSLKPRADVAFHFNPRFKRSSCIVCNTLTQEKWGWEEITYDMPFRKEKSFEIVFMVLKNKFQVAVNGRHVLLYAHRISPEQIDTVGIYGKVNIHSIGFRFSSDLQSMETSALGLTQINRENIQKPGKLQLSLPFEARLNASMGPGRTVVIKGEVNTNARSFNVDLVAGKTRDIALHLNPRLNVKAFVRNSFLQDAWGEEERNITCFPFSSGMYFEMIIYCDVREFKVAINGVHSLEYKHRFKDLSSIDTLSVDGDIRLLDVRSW
The test is described as above.

For “HA-optineurin (from UniProt Q8K3K8 1-584)”, the binding result in test [1] is “binds”.

Regarding “endogenous syntenin-1 (HEK293T cells) (from UniProt O00560 1-298)”, the binding entry in test [2] and in test [3] was “binds” in each case.
